The exact form of at least one protein or probe is not confirmed.
System: OpWRKY2 (Ophiorrhiza pumila)
Test: EMSA
Conditions: not given (EMSA performed as previously described, ref 16); recombinant protein; protein details: His-TF fusion (pCold-TF); label: 5' biotin on each strand

CTTCAGTCAAGGCC (double strand) [OpTDC promoter W-box probe (-2565 to -2552)]
binding result: binds

From PMC7775441
